Results on six compounds are retold here after PubChem BioAssay AID720532 (National Center for Advancing Translational Sciences (NCATS), 2013).

The list shows a part of the results, in another mix than the full data. Results filed as inconclusive are left out. The source made the active and inactive calls. Calls come from the whole dose curve; tested in HEK293 cells.
% is set by controls: 0 for no effect and ±100 for the full control effect; potency is the fitted concentration of half-maximal effect.

This experiment can be described thus: qHTS for Inhibitors of binding or entry into cells for Marburg Virus. The following applies: Marburg virus pseudotype entry/binding inhibition, cell-based; series mostly up to 49.2 µM; activity change, negative = inhibition: at the top concentration. In general terms: In qHTS, concentration-response curves come from the screen itself.
With `Fc1ccc(-c2ncn(C3CCNCC3)c2-c2ccnc(Oc3cccc(C(F)(F)F)c3)n2)cc1`, the Potency was active: 4.99 µM.

For the compound `O=C1NC(=O)c2c1c(-c1ccccc1)cc1[nH]c3ccc(O)cc3c21`, the Potency is active: 2.82 µM.

`Fc1ccc(-c2ncn(C3CCNCC3)c2-c2ccnc(Oc3cccc(F)c3)n2)cc1`: the Potency is active: 3.53 µM.

In the case of `O=C1NC(=O)C(c2ccccc2)=C1Nc1ccccc1`, the “activity change, negative = inhibition” value was inactive: 32%.

With `COc1ccccc1Oc1nccc(-c2c(-c3ccc(F)cc3)ncn2C2CCNCC2)n1`, the Potency is active: 12.5 µM.

Regarding `Fc1ccc(-c2ncn(C3CCNCC3)c2-c2ccnc(Oc3ccc(Cl)cc3)n2)cc1`, the Potency is active: 6.28 µM.
